This passage reports binding results from paper PMC4968818.

No constants are given. Whether binding was seen depends on the method and setting. In cells and extracts the contact can be indirect. A result given as binding can be weak or reduced; the word gives no strength.

The target of this assay is voltage-dependent anion channel (VDAC) protein (human (endogenous in T47D)). Description: co-IP; VDAC immunoprecipitated from cell lysate (anti-VDAC1/2/3, protein G agarose; lysate first blocked with 10 uM VDAC-binding membrane domain peptide), beads washed with PBS and incubated at RT for 50 min with recombinant HK at pH 6.2; western blots for HK-1, HK-2 and VDAC; both purified. A general note: Immunoblotting shows a protein as a band on a membrane.

B1: recombinant hexokinase 1 (HK-1) (enzyme, UniProt P19367 1-917)
chain: MIAAQLLAYYFTELKDDQVKKIDKYLYAMRLSDETLIDIMTRFRKEMKNGLSRDFNPTATVKMLPTFVRSIPDGSEKGDFIALDLGGSSFRILRVQVNHEKNQNVHMESEVYDTPENIVHGSGSQLFDHVAECLGDFMEKRKIKDKKLPVGFTFSFPCQQSKIDEAILITWTKRFKASGVEGADVVKLLNKAIKKRGDYDANIVAVVNDTVGTMMTCGYDDQHCEVGLIIGTGTNACYMEELRHIDLVEGDEGRMCINTEWGAFGDDGSLEDIRTEFDREIDRGSLNPGKQLFEKMVSGMYLGELVRLILVKMAKEGLLFEGRITPELLTRGKFNTSDVSAIEKNKEGLHNAKEILTRLGVEPSDDDCVSVQHVCTIVSFRSANLVAATLGAILNRLRDNKGTPRLRTTVGVDGSLYKTHPQYSRRFHKTLRRLVPDSDVRFLLSESGSGKGAAMVTAVAYRLAEQHRQIEETLAHFHLTKDMLLEVKKRMRAEMELGLRKQTHNNAVVKMLPSFVRRTPDGTENGDFLALDLGGTNFRVLLVKIRSGKKRTVEMHNKIYAIPIEIMQGTGEELFDHIVSCISDFLDYMGIKGPRMPLGFTFSFPCQQTSLDAGILITWTKGFKATDCVGHDVVTLLRDAIKRREEFDLDVVAVVNDTVGTMMTCAYEEPTCEVGLIVGTGSNACYMEEMKNVEMVEGDQGQMCINMEWGAFGDNGCLDDIRTHYDRLVDEYSLNAGKQRYEKMISGMYLGEIVRNILIDFTKKGFLFRGQISETLKTRGIFETKFLSQIESDRLALLQVRAILQQLGLNSTCDDSILVKTVCGVVSRRAAQLCGAGMAAVVDKIRENRGLDRLNVTVGVDGTLYKLHPHFSRIMHQTVKELSPKCNVSFLLSEDGSGKGAALITAVGVRLRTEASS
Consider B1, for which the binding result is recorded as “binds”.

B2: recombinant hexokinase 2 (HK-2) (enzyme, UniProt P52789 1-917)
chain: MIASHLLAYFFTELNHDQVQKVDQYLYHMRLSDETLLEISKRFRKEMEKGLGATTHPTAAVKMLPTFVRSTPDGTEHGEFLALDLGGTNFRVLWVKVTDNGLQKVEMENQIYAIPEDIMRGSGTQLFDHIAECLANFMDKLQIKDKKLPLGFTFSFPCHQTKLDESFLVSWTKGFKSSGVEGRDVVALIRKAIQRRGDFDIDIVAVVNDTVGTMMTCGYDDHNCEIGLIVGTGSNACYMEEMRHIDMVEGDEGRMCINMEWGAFGDDGSLNDIRTEFDQEIDMGSLNPGKQLFEKMISGMYMGELVRLILVKMAKEELLFGGKLSPELLNTGRFETKDISDIEGEKDGIRKAREVLMRLGLDPTQEDCVATHRICQIVSTRSASLCAATLAAVLQRIKENKGEERLRSTIGVDGSVYKKHPHFAKRLHKTVRRLVPGCDVRFLRSEDGSGKGAAMVTAVAYRLADQHRARQKTLEHLQLSHDQLLEVKRRMKVEMERGLSKETHASAPVKMLPTYVCATPDGTEKGDFLALDLGGTNFRVLLVRVRNGKWGGVEMHNKIYAIPQEVMHGTGDELFDHIVQCIADFLEYMGMKGVSLPLGFTFSFPCQQNSLDESILLKWTKGFKASGCEGEDVVTLLKEAIHRREEFDLDVVAVVNDTVGTMMTCGFEDPHCEVGLIVGTGSNACYMEEMRNVELVEGEEGRMCVNMEWGAFGDNGCLDDFRTEFDVAVDELSLNPGKQRFEKMISGMYLGEIVRNILIDFTKRGLLFRGRISERLKTRGIFETKFLSQIESDCLALLQVRAILQHLGLESTCDDSIIVKEVCTVVARRAAQLCGAGMAAVVDRIRENRGLDALKVTVGVDGTLYKLHPHFAKVMHETVKDLAPKCDVSFLQSEDGSGKGAALITAVACRIREAGQR
As for B2, the binding entry is “binds”.
